Consider 19 compounds from the supplement of paper PMC9744312.

Counter-ions that a name gives are not always drawn. Some of the results follow. The data scatter; read single values as rough.

The test concerns Peyronie's disease tunica albuginea primary fibroblasts. As to the kind of experiment: cell viability (DRAQ5 nuclear stain) relative to TGF-beta1-only control; higher = more viable cells. The conditions noted are these: 10 µM; TGF-beta1 10 ng/mL; 72 h.
`Cc1c(C(=O)NN2CCCCC2)nn(-c2ccc(Cl)cc2Cl)c1-c1ccc(Cl)cc1` [Rimonabant]: the cell viability is 57.1%.

The compound `C[C@H]1c2cccc(O)c2C(=O)C2=C(O)[C@]3(O)C(=O)C(C(N)=O)=C(O)[C@@H](N(C)C)[C@@H]3[C@@H](O)[C@@H]21` [Doxycycline] gave a cell viability of 84.8%.

With `C[C@H]1c2cccc(O)c2C(=O)C2=C(O)[C@]3(O)C(=O)C(C(N)=O)=C(O)[C@@H](N(C)C)[C@@H]3[C@@H](O)[C@@H]21` [Doxycycline Hyclate], the cell viability amounted to 100%.

On to `COc1cc2c(cc1OC)CC(=O)N(CCCN(C)C[C@H]1Cc3cc(OC)c(OC)cc31)CC2` [Ivabradine HCl], for which the cell viability stood at 93.6%.

With `O=C(O)c1cc(/N=N/c2ccc(O)c(C(=O)O)c2)ccc1O` [Olsalazine Sodium], the cell viability was found to be 91.9%.

As to `CC(=O)NCCCS(=O)(=O)O` [Acamprosate Calcium], the cell viability turned out to be 83.3%.

Consider `CNC(=O)c1cc(Oc2ccc(NC(=O)Nc3ccc(Cl)c(C(F)(F)F)c3)c(F)c2)ccn1` [Regorafenib Monohydrate], for which the cell viability came out at 60.7%.

The compound `CNC(=O)c1cc(Oc2ccc(NC(=O)Nc3ccc(Cl)c(C(F)(F)F)c3)c(F)c2)ccn1` [Regorafenib (BAY 73-4506)] displayed a cell viability of 47.8%.

`CC(C)(C)NCC(O)COc1cccc2c1CCC(=O)N2` (centres undefined) [Carteolol HCl] registered a cell viability of 85.8%.

Compound `CC(C)C[C@H](NC(=O)[C@@H](NC(=O)c1cccc(-c2ccccc2)n1)[C@@H](C)O)B(O)O` registered a cell viability of 22.2%.

As to `CCC/N=C1\S/C(=C\c2ccc(OC[C@H](O)CO)c(Cl)c2)C(=O)N1c1ccccc1C` [Ponesimod], the cell viability turned out to be 92.2%.

Take `Nc1nc2ccc(OC(F)(F)F)cc2s1` [Riluzole]: the cell viability worked out at 87.9%.

In turn, `CN1CCC(=C2c3ccccc3CCc3cccnc32)CC1` [Azatadine dimaleate] returned a cell viability of 97.5%.

Turning to `COc1ccc2c(c1)c(CC(=O)O)c(C)n2C(=O)c1ccc(Cl)cc1` [Indomethacin], the cell viability turned out to be 85.9%.

`COc1ccc2c(c1)c(CC(=O)O)c(C)n2C(=O)c1ccc(Cl)cc1` [Indometacin Sodium] returned a cell viability of 80.6%.

As for `C(=C\c1ccccc1)/CN1CCN(C(c2ccccc2)c2ccccc2)CC1` [Cinnarizine], the cell viability was determined as 87.2%.

Compound `C[C@@H]1CCO[C@H]2Cn3cc(C(=O)NCc4ccc(F)cc4F)c(=O)c(O)c3C(=O)N12` yielded a cell viability of 90.3%.

Consider `CO[C@H]1/C=C/O[C@@]2(C)Oc3c(C)c(O)c4c(O)c(cc(O)c4c3C2=O)NC(=O)/C(C)=C\C=C\[C@H](C)[C@H](O)[C@@H](C)[C@@H](O)[C@@H](C)[C@H](OC(C)=O)[C@@H]1C` [Rifamycin sodium salt], for which the cell viability was 99%.

`O=C(C1CCCCC1)N1CC(=O)N2CCc3ccccc3C2C1` (centres undefined) [Praziquantel] returned a cell viability of 99%.
